The other results are listed elsewhere or left out. The main result of the screen is listed elsewhere. These columns were measured beside it and carry no call. Compounds called inactive in the main read-out are mostly missing here.
Assay: dynein cargo transport inhibitors, GR-EGFP translocation, confirmation, imaging, high-content imaging, GR-EGFP cells (AID 463116)
Conditions: 3617.4 GR-EGFP nuclear translocation imaging, dexamethasone-induced; measured here: cell count per field; at 20 µM

| SMILES | z-score |
| --- | --- |
| COC(=O)C1=C(C)N(Cc2ccco2)C(=O)/C1=C\c1ccc([N+](=O)[O-])cc1 | -0.62 |
| CC(C)(C)C(=O)/C(=C/c1ccncc1)n1cncn1 | -0.544 |
| Cc1ccc(-c2cc(C(F)F)nc(S(C)(=O)=O)n2)cc1 | 0.664 |
| O=C1/C(=C/c2ccc(N3CCOCC3)o2)SC(=Nc2ccccc2)N1CCc1c[nH]c2ccccc12 | 0.256 |
| CCN(CC)CCCNC(=O)c1ccc2c(Cl)c3c(nc2c1)CCCC3 | 0.642 |
| O=C(Oc1ccccc1C(=O)Nc1ccccc1)c1ccc(Br)c([N+](=O)[O-])c1 | -0.158 |
| OC(CNCCc1ccc(C(F)(F)F)cc1)COc1ccc2ccccc2c1 (centres undefined) | -5.09 |
| O=C1ON=C(c2ccccc2)/C1=C/c1ccc(-c2ccccc2[N+](=O)[O-])o1 | 0.512 |
| CCOC(=O)c1c(C)oc2c1c(C(c1ccncc1)N1CCOCC1)c(O)c1ccccc12 (centres undefined) | 1.1 |
| O=C(/C=C/c1ccncc1)c1ccc2c(c1)OCCO2 | 0.201 |
| O=C(CCl)N1N=C(c2cccs2)CC1c1ccco1 (centres undefined) | 0.101 |
| CCOc1ccc2noc3c2c1C(=O)c1ccccc1-3 | 0.93 |
| CC1(C)CC(N=c2cc(-c3ccccc3)oc3ccc(Cl)cc23)CC(C)(C)N1 | -5.6 |
| CN1CCN(C2=C(Cl)C(=O)N(c3ccc(Cl)c(Cl)c3)C2=O)CC1 | -0.192 |
| O=c1c(Cl)c(Cl)cnn1-c1ccccc1 | 0.133 |
| C=C1C(=O)[C@@]23[C@H](O)C[C@@H]4C(C)(C)CC[C@H](O)[C@@]4(C)[C@@H]2CC[C@@H]1[C@H]3O | 0.0872 |
| Cn1c(=O)c(NCCc2ccccc2)c2c3c(cccc31)C(=O)c1ccccc1-2 | 0.228 |
| O=c1c(Cl)c(Cl)cnn1Cc1nnc(-c2ccc(Cl)cc2)o1 | 0.0228 |
| O=C(CCN1CCN(c2ccccc2F)CC1)c1ccc(Br)cc1 | 0.0471 |
| O=[N+]([O-])c1ccc2c(c1)N([O-])C1(CCCCC1)[N+]2=O | 0.611 |
| Nc1cccc2c1C(=O)N(C(=O)/C=C/c1cccc(F)c1)C2=O | 0.318 |
| CC1=Nc2ccccc2/C1=C/c1nc(-c2ccc(C)s2)oc1O | 0.886 |

| SMILES | z-score |
| --- | --- |
| CCOC(=O)c1c(NC(=S)N2CCCCC2)sc2c1CCN(C(=O)OCC)C2 | 0.000272 |
| CC(C)COc1cc(=O)[nH]c(SCC(C)C)n1 | 0.0278 |
| O=C(c1nnsc1S(=O)c1ccc(Cl)cc1)N1CCOCC1 (centres undefined) | -0.539 |
| Cc1ccc(-c2csc3nc(C)n(-n4c(C)ccc4C)c(=O)c23)o1 | -0.116 |
| COC(=O)C(=Cc1ccccc1[N+](=O)[O-])C(=O)OC | -0.415 |
| CCCCCCc1cc2cc(-c3nnc(-c4ccccc4O)o3)c(=O)oc2cc1O | -0.147 |
| COCCOC(=O)/C(=C\c1cc(C(C)(C)C)c(O)c(C(C)(C)C)c1)C(C)=O | -0.584 |
| COc1ccc(S(=O)(=O)Nc2ccc(O)c3ccccc23)cc1 | -0.284 |
| CCCS(=O)(=O)c1nnnn1-c1cccc(OC)c1 | 0.391 |
| CN1CCN(S(=O)(=O)c2ccc(Sc3nnnn3-c3ccccc3)c([N+](=O)[O-])c2)CC1 | -0.772 |
| Nc1c(C(=O)C2CC2)sc2nc(-c3cccs3)cc(C(F)(F)F)c12 | 0.00567 |
| O=C(NCc1cccnc1)/C(=C/c1ccc(-c2ccc(Cl)cc2)o1)S(=O)(=O)c1ccccc1 | -0.459 |
| COc1ccc(C(=O)C(CN2CCOCC2)c2ccccc2)cc1F (centres undefined) | 0.21 |
| CCCC(=O)OCCNc1cc(SCc2ccco2)c2nonc2c1[N+](=O)[O-] | -0.0753 |
| CCOc1cc(CNCCCN2CCOCC2)cc(Br)c1OCc1ccccc1Cl | -5.64 |
| O=C(Oc1oc(-c2ccco2)nc1C=Nc1ccccc1)c1ccoc1 | 0.506 |
| O=c1c(C(c2nnnn2C2CCCCC2)N2CCCCC2)coc2ccc(Cl)cc12 (centres undefined) | 0.237 |
| CCOC(=O)c1c(NC(=O)/C=C\C(=O)O)sc(C)c1-c1ccccc1 | 0.279 |
| COc1ccc(CC(=O)n2[nH]c(=O)ccc2=O)cc1OC | 0.733 |
| COC(=O)[C@@]1(Cc2ccccc2)[C@@H]2C(=CC(=O)[C@H]2CC(=O)C(=O)N(C)C)CN1C(=O)c1ccccc1 | 0.16 |
| Cc1cc(C)c2c(=O)n(CC(=O)N3CCC(N4CCCCC4)CC3)sc2n1 | -0.0907 |
| CN(C)CCCN(C(=O)CCOc1ccccc1)c1nc2c(F)cccc2s1 | 0.493 |

Ordered by molar mass (descending): part of the list above.

| SMILES | z-score |
| --- | --- |
| CCOc1cc(CNCCCN2CCOCC2)cc(Br)c1OCc1ccccc1Cl | -5.64 |
| CCOC(=O)c1c(NC(=S)N2CCCCC2)sc2c1CCN(C(=O)OCC)C2 | 0.000272 |
| CCCC(=O)OCCNc1cc(SCc2ccco2)c2nonc2c1[N+](=O)[O-] | -0.0753 |
| CCOC(=O)c1c(NC(=O)/C=C\C(=O)O)sc(C)c1-c1ccccc1 | 0.279 |
| COc1ccc(CC(=O)n2[nH]c(=O)ccc2=O)cc1OC | 0.733 |

Carrying on.

| SMILES | z-score |
| --- | --- |
| CCOn1c(=O)c(-c2ccc(OC)c(OC)c2)[n+]([O-])c2ccccc21 | 0.591 |
| CCN1CCN(C2=C(Cl)C(=O)N(Cc3ccccc3)C2=O)CC1 | 0.727 |
| O=[N+]([O-])c1ccc(/C=C/C2=NN(c3ccccc3)C(c3ccco3)C2)o1 (centres undefined) | 0.839 |
| O=[N+]([O-])c1c(NCCCO)cc(Sc2ccc(Cl)cc2)c2nonc12 | 0.0603 |
| CCCNC(=O)c1nnsc1S(=O)(=O)c1ccc(Cl)cc1 | -0.372 |
| COc1ccc(-c2cc(C(F)(F)F)nc(S(=O)(=O)CCCC(=O)Nc3cc(C)on3)n2)cc1OC | 0.273 |
| O=[N+]([O-])c1c(NCCCO)cc(Sc2nc3ccccc3s2)c2nonc12 | 0.3 |
| O=C(Cn1ncc(Cl)c(Cl)c1=O)N1CCN(Cc2ccccc2)CC1 | 0.344 |
| O=C(NC1CCCC1)C(c1ccc(F)cc1)N(Cc1ccc(Cl)cc1)C(=O)CCl (centres undefined) | 0.871 |
| O=C(O)CCN1C(=O)/C(=C\c2ccc(-c3nc4ccccc4s3)o2)SC1=S | 0.115 |
| CC(=O)n1cc(N(C(=O)CCl)c2ccc([N+](=O)[O-])cc2)c2ccccc21 | 0.185 |
| CCCCN1C(=O)/C(=C/C=C2\N(C)c3ccccc3C2(C)C)SC1=S | 0.289 |
| CCOC(=O)c1c(-c2ccc(C)o2)csc1NC(=O)CN1CCCCC1 | 0.118 |
| COc1ccc(C(=O)/C=C/C(=O)N(CC(=O)NCCC(C)C)Cc2cccs2)c(O)c1 | 0.369 |
| c1cncc(-c2nc(-c3ccco3)cs2)c1 | 0.434 |
| S=c1[nH]nc(-c2cc(-c3ccccc3)n[nH]2)n1/N=C/C(Br)=C/c1ccccc1 | 0.843 |
| COCCCNC(=O)c1ccc2c3c(onc13)-c1ccccc1C2=O | 0.336 |
| CCOC(=O)CC1C(=O)NCCN1c1nc2ccc(C)cn2c(=O)c1/C=C1\SC(=S)N(C(C)CC)C1=O (centres undefined) | 0.246 |
| CCc1ccc(/C=C/C(=O)c2c(C)cc(C)[nH]c2=O)cc1 | 0.289 |
| CC(=O)O[C@@H]1C[C@H]2C(C)(C)C(=O)C=C[C@]2(C)[C@H]2CC[C@@]3(C)[C@H](c4ccoc4)OC(=O)[C@H]4O[C@]43[C@@]21C | 0.403 |

Reference: PubChem BioAssay AID463116 (University of Pittsburgh Molecular Library Screening Center, 2010)
